# Data taken from the supplement of paper PMC11348887.
# Structures can show the parent of a compound that is named as a salt. The list shows a part of the results. Most values lie at the level of the controls, where differences are scatter.
# System: hPSC-derived cortical neurons (WA09)
# Test: nucleus area z-score vs screen plate; higher = larger nuclei (more mature)
# Conditions: 5 µM; treatment: days 7-14 after plating, readout day 21
row,SMILES,nucleus area z-score
1,CCOc1cc(N)c(Cl)cc1C(=O)NCC1CN(Cc2ccc(F)cc2)CCO1 (stereo not given) [Mosapride Citrate],1.52
2,CCCCCCNC(=O)n1cc(F)c(=O)[nH]c1=O [Carmofur],-0.738
3,COc1ccc([C@@H]2CC(=O)c3c(O)cc(O)cc3O2)cc1O [Hesperetin],-0.297
4,CC(=O)Oc1cccc2c1C(=O)c1c(OC(C)=O)cc(C(=O)O)cc1C2=O [Diacerein],0.115
5,CN1CCc2nc(C(=O)N[C@@H]3C[C@@H](C(=O)N(C)C)CC[C@@H]3NC(=O)C(=O)Nc3ccc(Cl)cn3)sc2C1 [Edoxaban],-0.42
6,O=C1CCC[C@@H]2[C@H]3CCC[N+]4([O-])CCC[C@@H](CN12)[C@@H]34 (stereo not given in full) [Oxymatrine],1.32
7,CC(C)(C)c1cc(C(=O)C(C#N)=NNc2cccc(Cl)c2)no1,0.671
8,O=[N+]([O-])c1ccc(O)c2ncccc12 [Nitroxoline],0.234
9,COc1ccccc1N1CCN(CCN2C(=O)CC3(CCCC3)CC2=O)CC1,0.31
10,COCCOC(=O)C1=C(C)NC(C)=C(C(=O)OC(C)C)C1c1cccc([N+](=O)[O-])c1 (stereo not given) [Nimodipine],-0.911
11,CCCc1ccc(OCC(=O)N(Cc2nc(-c3cccnc3)no2)C(C)C)cc1,0.844
12,COc1ccc2cc(CCC(C)=O)ccc2c1 [Nabumetone],0.539
13,COc1ccccc1C(=O)Nc1cc2c(cc1N1CCCC1)n(C)c(=O)n2C,1.78
14,COc1ccc(-c2cc3c(C)nc(N)nc3n([C@H]3CC[C@H](OCCO)CC3)c2=O)cn1,-3.76
15,CC1(C)S[C@@H]2[C@H](NC(=O)[C@H](NC(=O)N3CCN(S(C)(=O)=O)C3=O)c3ccccc3)C(=O)N2[C@H]1C(=O)O [Mezlocillin Sodium],0.0491

# Two entries from above, with tabs:
row	SMILES	nucleus area z-score
14	COc1ccc(-c2cc3c(C)nc(N)nc3n([C@H]3CC[C@H](OCCO)CC3)c2=O)cn1	-3.76
15	CC1(C)S[C@@H]2[C@H](NC(=O)[C@H](NC(=O)N3CCN(S(C)(=O)=O)C3=O)c3ccccc3)C(=O)N2[C@H]1C(=O)O [Mezlocillin Sodium]	0.0491
